Data from patent US8168619B1, “Hormonal composition based on a progestational agent and an oestrogen and use thereof” (Laboratoire Theramex, priority 1999, dated 2012).
For some of these results: For at least one compound, name, drawing or mass did not settle the structure. Some entries share one result that the patent states for a list of compounds.

What was measured:
endometrial cells = experiment: Sequential estrogen-progestative therapy: histological appearance of endometrium biopsy; format: in vivo, women; details: sequential therapy with 30 μg ethinyl estradiol; decreases at 10 mg/day
Procedure: Menopausal women, whether naturally or as the result of surgery, were subjected to a sequential estrogen-progestative therapy. From Day 1 to Day 12 they received 30 μg of ethinyl estradiol and then, from Day 13 to Day 22, the same dose of ethinyl estradiol associated with different doses of nomegestrol acetate or chlormadinone acetate. The doses were as follows:
The number of women was between 2 and 11, depending on the group. There was then a therapeutic pause of 7 days followed by a second treatment cycle.
The parameters taken into account were as follows: • the interval before periods commenced after the therapy had been interrupted, following the first and second treatment cycles; • the histological appearance of the endometrium recovered in a biopsy carried out between Day 17 and Day 20 of the second cycle.

endometrium = details: KUHL; cited from earlier work
ovulation = details: KUHL; cited from earlier work

Row | SMILES | Dose from which transformation of the endometrium into a secretory endometrium is total (endometrial cells) [mg/day] | Dose necessary to induce transformation of the endometrium (1) (endometrium) [µg/day] | Dose necessary to inhibit ovulation (3) (ovulation) [µg/day]
1 | CC(=O)O[C@]1(C(C)=O)CC[C@H]2[C@@H]3C=C(Cl)C4=CC(=O)CC[C@]4(C)[C@H]3CC[C@@]21C [Chlormadinone acetate, chlormadinone acetate] | ≥ 1 | – | –
2 | C#C[C@]1(O)CC[C@H]2[C@@H]3CCC4=CC(=O)CC[C@@H]4[C@H]3CC[C@@]21CC [Levonorgestrel] | – | 400 | 60
3 | CC(=O)O[C@]1(C(C)=O)CC[C@H]2[C@@H]3C=C(C)C4=CC(=O)CC[C@@H]4[C@H]3CC[C@@]21C [Nomegestrol acetate, nomegestrol acetate] | ≥ 1 | – | –
